Experimental data taken from patent publication US20060003989A1, “Compositions and methods using acetylcholinesterase (ACE) inhibitors to treat central nervous system (CNS) disorders in mammals” (priority 2002, published 2006).

Tests used:
[1] = tested on: nasal mucosa; settings: rat
[2] = rat, single intranasal dose, at 30 min

COc1cc2c(cc1OC)C(=O)C(CC1CCN(Cc3ccccc3)CC1)C2 (stereo not drawn) [donepezil]
signs of nasal irritation, pain or distress ([1]; intranasal 50 μL/kg of donepezil 50 mg/mL in α-cyclodextrin 12%, observed after dosing): No signs were noted of nasal irritation
otoscopic examination of the nasal cavity vs saline ([1]; intranasal donepezil 50 mg/mL in α-cyclodextrin 12%, 4 hours after dosing): did not reveal any difference
peak CSF concentration [2]: 28.4 nanogram/mL
